Results are given in words; binding and its absence hold for the method and conditions named.
What was measured:
[1] = molecular target: heterodimeric complex of EsxB and EsxA (EsxBA) (Mycobacterium tuberculosis H37Rv) (UniProt P9WNK5); assay: SEC; both purified
[2] = molecular target: Phosphate-specific transport substrate-binding protein-1 (PstS1), construct PstS1Δ24 (Mycobacterium tuberculosis H37Rv) (UniProt P9WGU1); assay: SEC; both purified

Sequences of proteins named here, by UniProt entry; tags and fusion partners are left off. A change or cut given only in a name is not applied to a line headed by its entry. Residues count along the entry.
UniProt P9WGU1, 24-374, stated change not applied: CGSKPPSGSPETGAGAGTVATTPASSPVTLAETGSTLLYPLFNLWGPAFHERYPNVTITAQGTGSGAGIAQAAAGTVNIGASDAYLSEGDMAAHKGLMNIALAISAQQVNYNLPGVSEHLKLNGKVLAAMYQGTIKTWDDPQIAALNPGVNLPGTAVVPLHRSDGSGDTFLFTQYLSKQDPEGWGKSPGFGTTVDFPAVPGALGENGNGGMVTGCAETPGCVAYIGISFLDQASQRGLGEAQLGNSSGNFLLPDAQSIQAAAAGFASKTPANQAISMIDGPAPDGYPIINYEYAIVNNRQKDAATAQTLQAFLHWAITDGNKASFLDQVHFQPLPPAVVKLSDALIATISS

For “heterodimeric complex of EsxB and EsxA (EsxBA) (from UniProt P9WNK5;P9WNK7)”, the binding [1] was “no binding”.

“Phosphate-specific transport substrate-binding protein-1 (PstS1), construct PstS1Δ24 (from UniProt P9WGU1 24-374)” was tested, and the binding [2] was “no binding”.

Reference: PMC5095800, “A standardized production pipeline for high profile targets from Mycobacterium tuberculosis” (Proteomics. Clinical Applications, 2016)
